# Experimental data taken from the supplement of paper PMC5393889.
# The list shows a part of the results.
# Tested on: Caenorhabditis elegans N2
# Experiment: aldicarb interaction hit call (worm growth perturbed in combination with 10 uM aldicarb in both replicates, no effect as single agent) (binary (1 = interacts)); higher = interacts with aldicarb (growth perturbed)
# Details: first compound 1.5 µM; aldicarb concentration 10 µM; 6 days; 20 °C
row,Compound,aldicarb interaction hit call
1,CSc1ccccc1C(=O)NCc1ccc(F)cc1 [wact-563] + CNC(=O)O/N=C/C(C)(C)SC [aldicarb],inactive: 0
2,c1ccc(-c2noc(-c3ccccc3)n2)cc1 [wact-589] + CNC(=O)O/N=C/C(C)(C)SC [aldicarb],inactive: 0
3,Cc1c(Cl)ccc(OCCCCN2CCNCC2)c1C.Cl [wact-78] + CNC(=O)O/N=C/C(C)(C)SC [aldicarb],inactive: 0
4,CN(CC1CCN(CCc2ccc(Cl)cc2)CC1)C1CCC1 [wact-268] + CNC(=O)O/N=C/C(C)(C)SC [aldicarb],inactive: 0
5,c1csc(-c2cnc3ccccc3n2)c1 [wact-21] + CNC(=O)O/N=C/C(C)(C)SC [aldicarb],inactive: 0
6,Cc1nc(CNC2CCCc3c2cnn3-c2ccc(C(C)(C)C)cc2)c[nH]1 (stereo unspecified) [wact-300] + CNC(=O)O/N=C/C(C)(C)SC [aldicarb],inactive: 0
7,CC(NC(=O)c1csc2nc(-c3ccc(C(F)(F)F)cc3)cn12)c1ccncn1 (stereo unspecified) [wact-339] + CNC(=O)O/N=C/C(C)(C)SC [aldicarb],inactive: 0
8,S=C(NCC1CCCO1)N1CCN(c2ccc(Cl)c(Cl)c2)CC1 (stereo unspecified) [wact-111] + CNC(=O)O/N=C/C(C)(C)SC [aldicarb],inactive: 0
9,O=C(NCCc1ccc(F)cc1)Nc1ccc([N+](=O)[O-])cc1 [wact-82] + CNC(=O)O/N=C/C(C)(C)SC [aldicarb],inactive: 0
10,C(#Cc1ccc(/C=N/c2nccs2)cc1)c1ccccc1 [wact-376] + CNC(=O)O/N=C/C(C)(C)SC [aldicarb],inactive: 0
11,S=C(Nc1ccc(Cl)c(Cl)c1)NC1CCN(Cc2ccccc2)CC1 [wact-107] + CNC(=O)O/N=C/C(C)(C)SC [aldicarb],inactive: 0
12,FC(F)(F)c1cccc(-c2noc(-c3cccs3)n2)c1 [wact-180] + CNC(=O)O/N=C/C(C)(C)SC [aldicarb],inactive: 0
13,Cl.c1ccc(-c2ccc(OCCCCN3CCOCC3)cc2)cc1 [wact-146] + CNC(=O)O/N=C/C(C)(C)SC [aldicarb],inactive: 0
14,Cc1ccc(-c2nc(-c3ccc(Cl)cc3)no2)cc1 [wact-445] + CNC(=O)O/N=C/C(C)(C)SC [aldicarb],active: 1
15,CC1(C)Cc2c(cnn2-c2cccc(F)c2)C(NCc2c[nH]nc2-c2ccccc2)C1 (stereo unspecified) [wact-309] + CNC(=O)O/N=C/C(C)(C)SC [aldicarb],inactive: 0
16,COc1ccc(/C=C/C(=O)/C=C/c2ccccc2)cc1 [wact-426] + CNC(=O)O/N=C/C(C)(C)SC [aldicarb],inactive: 0
17,Clc1ccccc1/C=C/c1nc(-c2ccncc2)no1 [wact-81] + CNC(=O)O/N=C/C(C)(C)SC [aldicarb],inactive: 0
18,Cc1ccccc1Cn1c(=N)n(CC(O)c2ccc(Cl)c(Cl)c2)c2ccccc21.Cl (stereo unspecified) [wact-625] + CNC(=O)O/N=C/C(C)(C)SC [aldicarb],inactive: 0
19,CC(C)NCCCCOc1ccc(Cl)c(Cl)c1.O=C(O)C(=O)O [wact-68] + CNC(=O)O/N=C/C(C)(C)SC [aldicarb],inactive: 0
20,Cn1cc(CN2CCCC(C(=O)c3ccc(-c4ccccc4)cc3)C2)cn1 (stereo unspecified) [wact-249] + CNC(=O)O/N=C/C(C)(C)SC [aldicarb],inactive: 0
21,COc1ccc(-c2nc3ccc(N)cc3o2)cc1 [wact-230] + CNC(=O)O/N=C/C(C)(C)SC [aldicarb],inactive: 0
22,CN(CC1CCN(CCc2ccc(Cl)cc2)CC1)C1CCOCC1 [wact-319] + CNC(=O)O/N=C/C(C)(C)SC [aldicarb],inactive: 0
23,CC(NCc1c[nH]nc1-c1cccc2ccccc12)c1ccc(F)cc1 (stereo unspecified) [wact-239] + CNC(=O)O/N=C/C(C)(C)SC [aldicarb],inactive: 0
24,Cc1ccccc1C(=O)NCCc1ccccc1 [wact-406] + CNC(=O)O/N=C/C(C)(C)SC [aldicarb],inactive: 0
25,CCCCSc1nnc(-c2ccc(Cl)cc2Cl)o1 [wact-39] + CNC(=O)O/N=C/C(C)(C)SC [aldicarb],inactive: 0
26,Fc1ccc(CNC(=S)Nc2cnn(Cc3ccc(Br)cc3)c2)cc1 [wact-114] + CNC(=O)O/N=C/C(C)(C)SC [aldicarb],inactive: 0

# Single values from the list:
# Entry of Cc1ccccc1C(=O)NCCc1ccccc1 [wact-406] + CNC(=O)O/N=C/C(C)(C)SC [aldicarb] under aldicarb interaction hit call: inactive: 0
# Entry of S=C(NCC1CCCO1)N1CCN(c2ccc(Cl)c(Cl)c2)CC1 (stereo unspecified) [wact-111] + CNC(=O)O/N=C/C(C)(C)SC [aldicarb] under aldicarb interaction hit call: inactive: 0
